Taken from: PubChem BioAssay AID504791 (Drosophila RNAi Screening Center, 2011)
The screen tested about 23,000 reagents; shown is an unselected part of those that have a named target and a result. Over the whole deposit, 199 (0.86%) were called active. 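Plate-scaled ratios behind the calls are not deposited; printed light signals are raw; many rows marked increased or decreased are still called inactive.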 The numbers tell different reagents against one gene apart. No sequences are given here. Not given: the direction of the score.

- Screen: 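Genes of the fly required for silencing by miRNA, siRNA or endo-siRNA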 (primary screen)
- Cells: Drosophila S2-derived reporter cells
- Reagents: long dsRNA against Drosophila genes, about 150-250 ng dsRNA per well (siRNA assay); about 80-120 ng (miRNA assay)
- Time to read-out: about 5 days (siRNA assay); about 4 days (miRNA assay)
- Treatment: copper sulfate induction of reporters: 25 µM (siRNA assay); 200 mM stated (miRNA assay), 1-2 days before reading
- Measurement: 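Per-well ratio of Renilla over firefly light, expressed relative to that plate's average ratio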
- Rule for the call: 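First-pass picks had plate-scaled ratios over 1.5 for the siRNA assay, over 1.6 for the miRNA assay, or under 0.6; two distinct dsRNAs had to score alike on retest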

target gene | reagent no. | stable siRNA reporter change | miRNA reporter change | stable assay Renilla, run 1 (luminescence) | stable assay firefly, run 1 (luminescence) | activity call
CG6985 (GeneID 42694) | 1 | – | – | 6582 | 2.81e5 | inactive
CG15514 (GeneID 43531) | 1 | – | – | 8437 | 4.49e5 | inactive
Idgf2 (GeneID 34979) | 1 | – | – | 22332 | 1.40e6 | inactive
CG1958 (GeneID 31661) | 1 | – | – | 5151 | 2.43e5 | inactive
mAcon2 (GeneID 41326) | 1 | – | – | 5579 | 3.50e5 | inactive
CG17030 (GeneID 38591) | 1 | – | – | 6815 | 4.60e5 | inactive
muskelin (GeneID 36386) | 1 | – | – | 5898 | 3.58e5 | inactive
Tektin-C (GeneID 38653) | 1 | – | – | 6496 | 3.85e5 | inactive
CARPB (GeneID 31915) | 1 | – | – | 2939 | 3.84e5 | inactive
CARPB (GeneID 31915) | 2 | – | – | 5895 | 4.86e5 | inactive
CG34268 (GeneID 5740141) | 1 | – | – | 4944 | 4.59e5 | inactive
Gr9a (GeneID 318158) | 1 | – | – | 3628 | 3.46e5 | inactive
mop (GeneID 39610) | 1 | – | – | 7263 | 2.96e5 | inactive
CG14628 (GeneID 31057) | 1 | – | – | 5563 | 3.23e5 | inactive
CG9706 (GeneID 39876) | 1 | – | – | 6675 | 2.72e5 | inactive
Lsd-2 (GeneID 32437) | 1 | – | – | 7954 | 3.83e5 | inactive
Grx3 (GeneID 34745) | 1 | – | – | 9262 | 1.22e6 | inactive
Jon66Cii (GeneID 38953) | 1 | – | – | 6528 | 4.27e5 | inactive
CG18810 (GeneID 59171) | 1 | – | – | 6731 | 4.19e5 | inactive
CG11029 (GeneID 33804) | 1 | – | – | 7562 | 3.75e5 | inactive
CG11357 (GeneID 38561) | 1 | – | – | 6364 | 4.64e5 | inactive
CG17272 (GeneID 42465) | 1 | – | – | 7527 | 4.21e5 | inactive
Pex11ab (GeneID 36758) | 1 | – | – | 6955 | 3.82e5 | inactive
Mettl2 (GeneID 38197) | 1 | – | – | 10806 | 4.13e5 | inactive
dos (GeneID 38321) | 1 | – | – | 4015 | 3.17e5 | inactive
dos (GeneID 38321) | 2 | – | – | 6051 | 3.56e5 | inactive
dos (GeneID 38321) | 3 | – | – | 2660 | 2.38e5 | inactive
Acp53C14c (GeneID 3346203) | 1 | – | – | 6192 | 3.68e5 | inactive
CG42724 (GeneID 40785) | 1 | reporter ratio lowered past the hit cutoff | – | 7837 | 7.34e5 | active
CG42724 (GeneID 40785) | 2 | – | – | 9155 | 5.75e5 | inactive
CG44433 (GeneID 37150) | 1 | – | – | 6816 | 4.46e5 | inactive
CG44433 (GeneID 37150) | 2 | – | – | 6751 | 3.80e5 | inactive
dhd (GeneID 31444) | 1 | – | – | 7293 | 5.19e5 | inactive
Rbp6 (GeneID 39919) | 1 | – | – | 5568 | 3.18e5 | inactive
Rbp6 (GeneID 39919) | 2 | – | – | 7031 | 4.83e5 | inactive
Rbp6 (GeneID 39919) | 3 | – | – | 6716 | 3.98e5 | inactive
Rbp6 (GeneID 39919) | 4 | – | – | 7146 | 3.41e5 | inactive
Rbp6 (GeneID 39919) | 5 | – | – | 5706 | 2.95e5 | inactive
Muc91C (GeneID 42246) | 1 | – | – | 6150 | 3.40e5 | inactive
Muc91C (GeneID 42246) | 2 | – | – | 9814 | 5.61e5 | inactive
CG34382 (GeneID 5740788) | 1 | – | – | 4660 | 4.58e5 | inactive
CG34382 (GeneID 5740788) | 2 | – | – | 6698 | 4.20e5 | inactive
CG34382 (GeneID 5740788) | 3 | – | – | 7555 | 4.02e5 | inactive
CG1603 (GeneID 35683) | 1 | – | reporter ratio lowered past the hit cutoff | 8859 | 2.15e6 | inactive
chinmo (GeneID 33343) | 1 | – | – | 71069 | 2.22e5 | inactive
chinmo (GeneID 33343) | 2 | reporter ratio lowered past the hit cutoff | – | 3452 | 4.45e5 | inactive
chinmo (GeneID 33343) | 3 | – | – | 5719 | 4.04e5 | inactive
chinmo (GeneID 33343) | 4 | – | – | 4127 | 3.54e5 | inactive
nmdyn-D6 (GeneID 32396) | 1 | – | – | 4888 | 4.02e5 | inactive
Uros2 (GeneID 41908) | 1 | – | – | 6966 | 4.05e5 | inactive
CG4161 (GeneID 34907) | 1 | – | – | 7158 | 3.38e5 | inactive
Dek (GeneID 47906) | 1 | – | reporter ratio lowered past the hit cutoff | 6520 | 3.33e5 | inactive
Prm (GeneID 39002) | 1 | – | – | 4403 | 3.27e5 | inactive
Prm (GeneID 39002) | 2 | – | – | 4423 | 3.32e5 | inactive
Prm (GeneID 39002) | 3 | – | – | 8110 | 4.77e5 | inactive
CG18547 (GeneID 41452) | 1 | – | – | 7391 | 4.21e5 | inactive
Tsp42Eq (GeneID 35628) | 1 | – | – | 6882 | 4.72e5 | inactive
CG31886 (GeneID 326170) | 1 | – | – | 7892 | 7.58e5 | inactive
CG32625 (GeneID 318128) | 1 | – | – | 4687 | 3.46e5 | inactive
CG12620 (GeneID 35034) | 1 | – | – | 8175 | 4.17e5 | inactive
CG13717 (retired record) (GeneID 38566) | 1 | – | – | 2568 | 3.55e5 | inactive
CG13717 (retired record) (GeneID 38566) | 2 | – | – | 5611 | 4.01e5 | inactive
CG13717 (retired record) (GeneID 38566) | 3 | – | – | 5143 | 2.33e5 | inactive
CG13717 (retired record) (GeneID 38566) | 4 | – | – | 9941 | 4.72e5 | inactive
CG13717 (retired record) (GeneID 38566) | 5 | – | – | 7211 | 4.22e5 | inactive
CG7606 (GeneID 8673956) | 1 | – | – | 3575 | 3.67e5 | inactive
CG7606 (GeneID 8673956) | 2 | – | – | 6534 | 4.58e5 | inactive
CG31689 (GeneID 326154) | 1 | – | – | 7155 | 3.98e5 | inactive
ato (GeneID 40975) | 1 | – | – | 7095 | 3.67e5 | inactive
Vti1a (GeneID 38085) | 1 | – | – | 11133 | 5.41e5 | inactive
CG5466 (GeneID 42444) | 1 | reporter ratio raised past the hit cutoff | – | 5743 | 1.75e5 | inactive
CG5466 (GeneID 42444) | 2 | – | – | 2827 | 2.37e5 | inactive
CG7011 (GeneID 39657) | 1 | – | – | 5847 | 3.76e5 | inactive
CG7849 (GeneID 35537) | 1 | – | – | 6455 | 4.09e5 | inactive
eIF4A (GeneID 33835) | 1 | reporter ratio raised past the hit cutoff | – | 6220 | 2.23e5 | active
TotA (GeneID 44121) | 1 | – | – | 4979 | 5.31e5 | inactive
CG2930 (GeneID 31341) | 1 | – | – | 7298 | 4.37e5 | inactive
DCTN4-p62 (GeneID 35709) | 1 | – | – | 9695 | 7.50e5 | inactive
CG14442 (GeneID 31609) | 1 | – | – | 7200 | 2.93e5 | inactive
CG13117 (GeneID 34289) | 1 | – | – | 7314 | 4.39e5 | inactive
Hey (GeneID 35764) | 1 | – | – | 5387 | 2.21e5 | inactive
Hey (GeneID 35764) | 2 | – | – | 5052 | 3.06e5 | inactive
mfrn (GeneID 43353) | 1 | reporter ratio lowered past the hit cutoff | – | 4539 | 4.85e5 | inactive

Called active, of those listed so far:
target gene | reagent no. | stable siRNA reporter change | miRNA reporter change | stable assay Renilla, run 1 (luminescence) | stable assay firefly, run 1 (luminescence) | activity call
CG42724 (GeneID 40785) | 1 | reporter ratio lowered past the hit cutoff | – | 7837 | 7.34e5 | active
eIF4A (GeneID 33835) | 1 | reporter ratio raised past the hit cutoff | – | 6220 | 2.23e5 | active
